Positions count from the first letter of the chain named. No constants are given. Whether binding was seen depends on the method and setting. Binding seen in cells or lysates may run through a third protein. These calls come from enrichment with a bait or labelling near it, and not all partners need be listed. For part of these data: No binding means not detected with the bait. For part of these data: Sequences can lack the tags named with a protein.
molecular target: T1, BirA*-FLAG-GATAD1 S102P (human) (UniProt Q8WUU5); test: affinity purification with mass spectrometry; FLAG immunoprecipitation (ANTI-FLAG M2 magnetic beads, 2 h) of BirA*-FLAG-GATAD1 variants from tetracycline-induced Flp-In-293 T-REx lysate (50 mM Tris HCl pH 7.4, 150 mM NaCl, 1 mM EDTA, 1% Triton X-100); control non-induced cells; label-free, triplicates
T1 sequence: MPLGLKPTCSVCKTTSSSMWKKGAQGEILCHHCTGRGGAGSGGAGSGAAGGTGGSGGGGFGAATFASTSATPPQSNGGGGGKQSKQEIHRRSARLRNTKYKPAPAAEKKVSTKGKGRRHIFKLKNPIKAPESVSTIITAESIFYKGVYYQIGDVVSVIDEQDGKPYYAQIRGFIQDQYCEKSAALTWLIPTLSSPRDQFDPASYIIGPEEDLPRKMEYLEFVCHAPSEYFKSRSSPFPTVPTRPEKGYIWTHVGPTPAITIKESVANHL

Protein sequences, listed by entry. Tags and fused reporters are not part of them.
UniProt P31946: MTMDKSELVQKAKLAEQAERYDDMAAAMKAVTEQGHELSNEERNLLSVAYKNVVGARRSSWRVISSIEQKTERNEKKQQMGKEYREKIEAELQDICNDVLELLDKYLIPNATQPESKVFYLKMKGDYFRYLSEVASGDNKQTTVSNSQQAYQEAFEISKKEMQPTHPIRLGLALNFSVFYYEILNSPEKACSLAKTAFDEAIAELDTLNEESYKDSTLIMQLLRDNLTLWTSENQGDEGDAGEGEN
UniProt P62258: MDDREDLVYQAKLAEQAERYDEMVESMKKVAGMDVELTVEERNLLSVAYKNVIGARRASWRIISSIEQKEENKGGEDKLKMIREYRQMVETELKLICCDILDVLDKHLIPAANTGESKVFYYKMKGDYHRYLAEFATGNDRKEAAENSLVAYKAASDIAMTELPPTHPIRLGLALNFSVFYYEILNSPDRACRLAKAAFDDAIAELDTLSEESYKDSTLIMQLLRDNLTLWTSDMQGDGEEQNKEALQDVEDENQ
UniProt P63104: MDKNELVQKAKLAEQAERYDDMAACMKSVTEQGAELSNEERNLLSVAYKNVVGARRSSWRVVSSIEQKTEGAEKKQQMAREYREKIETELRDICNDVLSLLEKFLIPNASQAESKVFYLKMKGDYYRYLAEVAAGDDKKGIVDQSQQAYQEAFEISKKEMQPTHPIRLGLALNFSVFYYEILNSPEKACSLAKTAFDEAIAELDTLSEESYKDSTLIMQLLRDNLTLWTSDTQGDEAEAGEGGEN
UniProt Q09028: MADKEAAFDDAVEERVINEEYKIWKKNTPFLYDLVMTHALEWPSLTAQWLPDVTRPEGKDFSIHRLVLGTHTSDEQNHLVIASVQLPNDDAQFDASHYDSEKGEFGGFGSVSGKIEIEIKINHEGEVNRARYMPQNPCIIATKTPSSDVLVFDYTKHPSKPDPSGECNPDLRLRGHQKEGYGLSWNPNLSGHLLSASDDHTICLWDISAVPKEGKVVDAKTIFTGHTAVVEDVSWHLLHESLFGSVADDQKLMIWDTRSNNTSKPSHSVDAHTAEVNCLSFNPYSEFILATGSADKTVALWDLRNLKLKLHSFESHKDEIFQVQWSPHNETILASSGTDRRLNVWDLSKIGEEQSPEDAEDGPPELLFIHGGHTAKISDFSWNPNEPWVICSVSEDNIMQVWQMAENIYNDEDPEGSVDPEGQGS
UniProt Q96QT6: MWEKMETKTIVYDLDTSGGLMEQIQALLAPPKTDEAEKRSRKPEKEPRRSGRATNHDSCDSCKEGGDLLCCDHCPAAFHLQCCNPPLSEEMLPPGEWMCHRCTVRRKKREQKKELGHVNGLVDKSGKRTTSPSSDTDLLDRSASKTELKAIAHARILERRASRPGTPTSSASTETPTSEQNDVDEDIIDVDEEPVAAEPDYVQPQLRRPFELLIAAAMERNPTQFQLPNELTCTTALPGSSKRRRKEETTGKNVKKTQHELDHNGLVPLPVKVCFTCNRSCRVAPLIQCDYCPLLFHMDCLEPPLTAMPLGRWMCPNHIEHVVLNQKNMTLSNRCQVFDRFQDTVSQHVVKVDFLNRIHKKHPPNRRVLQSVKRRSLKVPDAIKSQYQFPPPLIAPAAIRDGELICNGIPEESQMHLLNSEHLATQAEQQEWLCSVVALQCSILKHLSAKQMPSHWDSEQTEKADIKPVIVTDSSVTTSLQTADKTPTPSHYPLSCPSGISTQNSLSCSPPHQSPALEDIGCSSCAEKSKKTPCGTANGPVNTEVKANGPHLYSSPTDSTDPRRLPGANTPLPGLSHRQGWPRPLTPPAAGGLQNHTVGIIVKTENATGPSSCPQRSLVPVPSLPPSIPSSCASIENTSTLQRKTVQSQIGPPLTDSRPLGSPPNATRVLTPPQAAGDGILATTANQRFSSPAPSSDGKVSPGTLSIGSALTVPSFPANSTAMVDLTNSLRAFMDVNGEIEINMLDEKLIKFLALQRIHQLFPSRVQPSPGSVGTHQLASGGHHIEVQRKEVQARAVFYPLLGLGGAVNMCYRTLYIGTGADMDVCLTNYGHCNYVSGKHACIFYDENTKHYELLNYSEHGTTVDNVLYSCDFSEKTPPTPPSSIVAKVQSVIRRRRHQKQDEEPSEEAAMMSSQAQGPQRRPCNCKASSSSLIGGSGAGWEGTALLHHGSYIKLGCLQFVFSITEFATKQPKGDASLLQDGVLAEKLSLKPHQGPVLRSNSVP
UniProt P49792: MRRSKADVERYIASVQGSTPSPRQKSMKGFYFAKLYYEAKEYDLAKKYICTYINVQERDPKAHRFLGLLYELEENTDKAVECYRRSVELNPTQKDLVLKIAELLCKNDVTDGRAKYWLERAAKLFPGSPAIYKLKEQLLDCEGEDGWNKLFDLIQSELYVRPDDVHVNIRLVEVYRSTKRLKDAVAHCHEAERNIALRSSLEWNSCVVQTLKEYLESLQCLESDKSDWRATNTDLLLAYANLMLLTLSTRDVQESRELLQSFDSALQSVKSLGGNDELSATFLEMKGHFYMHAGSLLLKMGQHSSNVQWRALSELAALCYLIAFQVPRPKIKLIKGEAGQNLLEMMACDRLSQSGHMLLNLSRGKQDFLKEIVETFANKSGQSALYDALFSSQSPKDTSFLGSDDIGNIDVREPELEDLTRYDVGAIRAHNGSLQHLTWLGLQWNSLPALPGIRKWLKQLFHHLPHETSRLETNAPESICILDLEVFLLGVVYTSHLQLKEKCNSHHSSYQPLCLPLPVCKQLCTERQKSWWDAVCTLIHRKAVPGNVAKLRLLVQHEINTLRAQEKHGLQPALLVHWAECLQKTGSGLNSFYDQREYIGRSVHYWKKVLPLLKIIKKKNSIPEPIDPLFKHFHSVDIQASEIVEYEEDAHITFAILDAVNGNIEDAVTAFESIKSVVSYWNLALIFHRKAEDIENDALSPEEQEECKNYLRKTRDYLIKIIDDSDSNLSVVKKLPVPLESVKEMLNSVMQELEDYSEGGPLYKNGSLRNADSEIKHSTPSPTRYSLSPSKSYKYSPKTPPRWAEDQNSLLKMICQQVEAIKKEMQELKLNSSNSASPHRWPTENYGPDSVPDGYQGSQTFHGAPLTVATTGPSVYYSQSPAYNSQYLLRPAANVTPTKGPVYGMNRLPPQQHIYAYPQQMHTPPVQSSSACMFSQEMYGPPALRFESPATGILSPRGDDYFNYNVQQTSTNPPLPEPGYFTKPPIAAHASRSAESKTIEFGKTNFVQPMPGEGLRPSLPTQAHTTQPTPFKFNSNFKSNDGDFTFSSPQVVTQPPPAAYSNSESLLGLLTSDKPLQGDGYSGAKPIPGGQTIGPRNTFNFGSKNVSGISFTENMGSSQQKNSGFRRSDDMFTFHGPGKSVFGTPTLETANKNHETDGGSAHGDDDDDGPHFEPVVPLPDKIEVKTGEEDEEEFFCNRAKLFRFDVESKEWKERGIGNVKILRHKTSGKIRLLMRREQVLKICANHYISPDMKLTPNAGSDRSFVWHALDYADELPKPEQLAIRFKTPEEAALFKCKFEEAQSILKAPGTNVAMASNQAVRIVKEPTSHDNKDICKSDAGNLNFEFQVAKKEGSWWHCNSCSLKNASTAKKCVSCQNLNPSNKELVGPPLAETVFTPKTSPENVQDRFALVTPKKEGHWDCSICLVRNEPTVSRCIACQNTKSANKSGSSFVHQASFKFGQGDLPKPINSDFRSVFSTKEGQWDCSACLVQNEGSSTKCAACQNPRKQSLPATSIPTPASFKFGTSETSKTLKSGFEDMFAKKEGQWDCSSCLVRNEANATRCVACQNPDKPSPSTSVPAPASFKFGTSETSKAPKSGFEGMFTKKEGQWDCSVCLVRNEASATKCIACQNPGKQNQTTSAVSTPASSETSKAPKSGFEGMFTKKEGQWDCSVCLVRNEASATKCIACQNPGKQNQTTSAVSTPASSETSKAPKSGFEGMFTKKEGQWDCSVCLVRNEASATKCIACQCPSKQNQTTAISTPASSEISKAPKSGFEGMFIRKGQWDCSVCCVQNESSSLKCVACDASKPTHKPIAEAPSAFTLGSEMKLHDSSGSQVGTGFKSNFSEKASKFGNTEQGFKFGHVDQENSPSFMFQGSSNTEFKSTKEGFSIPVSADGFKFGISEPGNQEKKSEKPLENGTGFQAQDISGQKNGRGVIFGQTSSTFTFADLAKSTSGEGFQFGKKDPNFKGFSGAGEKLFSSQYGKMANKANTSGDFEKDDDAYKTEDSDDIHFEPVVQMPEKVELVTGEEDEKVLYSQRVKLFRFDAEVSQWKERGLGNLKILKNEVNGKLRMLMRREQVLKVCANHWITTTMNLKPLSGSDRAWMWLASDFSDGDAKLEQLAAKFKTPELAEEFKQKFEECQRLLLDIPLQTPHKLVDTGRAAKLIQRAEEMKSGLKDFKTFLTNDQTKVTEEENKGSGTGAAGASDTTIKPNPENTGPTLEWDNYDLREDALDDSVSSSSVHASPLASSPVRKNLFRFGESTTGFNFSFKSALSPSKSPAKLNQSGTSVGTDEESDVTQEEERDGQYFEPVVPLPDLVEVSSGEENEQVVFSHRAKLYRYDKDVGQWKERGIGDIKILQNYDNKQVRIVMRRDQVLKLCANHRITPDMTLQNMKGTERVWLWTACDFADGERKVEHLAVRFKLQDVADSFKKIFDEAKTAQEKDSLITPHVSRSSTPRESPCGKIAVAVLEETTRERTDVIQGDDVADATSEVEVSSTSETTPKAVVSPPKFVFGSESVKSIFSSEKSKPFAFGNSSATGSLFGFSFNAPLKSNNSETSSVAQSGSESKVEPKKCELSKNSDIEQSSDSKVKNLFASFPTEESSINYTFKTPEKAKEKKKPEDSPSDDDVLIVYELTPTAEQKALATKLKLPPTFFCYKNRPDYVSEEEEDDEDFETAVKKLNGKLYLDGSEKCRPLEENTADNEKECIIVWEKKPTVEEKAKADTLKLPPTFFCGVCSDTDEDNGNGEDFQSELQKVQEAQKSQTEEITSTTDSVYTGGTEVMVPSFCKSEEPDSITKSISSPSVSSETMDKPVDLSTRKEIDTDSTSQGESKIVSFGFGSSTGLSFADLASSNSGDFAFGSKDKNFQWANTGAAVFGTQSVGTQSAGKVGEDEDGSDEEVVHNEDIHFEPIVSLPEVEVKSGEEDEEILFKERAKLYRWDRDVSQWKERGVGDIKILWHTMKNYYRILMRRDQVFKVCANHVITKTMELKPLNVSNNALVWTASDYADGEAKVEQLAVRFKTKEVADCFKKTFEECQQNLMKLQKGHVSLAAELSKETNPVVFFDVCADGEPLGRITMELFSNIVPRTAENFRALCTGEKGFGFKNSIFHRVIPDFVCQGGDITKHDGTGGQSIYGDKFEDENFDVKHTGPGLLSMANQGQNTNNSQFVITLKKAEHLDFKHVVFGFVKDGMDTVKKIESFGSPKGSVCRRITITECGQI
UniProt Q92973: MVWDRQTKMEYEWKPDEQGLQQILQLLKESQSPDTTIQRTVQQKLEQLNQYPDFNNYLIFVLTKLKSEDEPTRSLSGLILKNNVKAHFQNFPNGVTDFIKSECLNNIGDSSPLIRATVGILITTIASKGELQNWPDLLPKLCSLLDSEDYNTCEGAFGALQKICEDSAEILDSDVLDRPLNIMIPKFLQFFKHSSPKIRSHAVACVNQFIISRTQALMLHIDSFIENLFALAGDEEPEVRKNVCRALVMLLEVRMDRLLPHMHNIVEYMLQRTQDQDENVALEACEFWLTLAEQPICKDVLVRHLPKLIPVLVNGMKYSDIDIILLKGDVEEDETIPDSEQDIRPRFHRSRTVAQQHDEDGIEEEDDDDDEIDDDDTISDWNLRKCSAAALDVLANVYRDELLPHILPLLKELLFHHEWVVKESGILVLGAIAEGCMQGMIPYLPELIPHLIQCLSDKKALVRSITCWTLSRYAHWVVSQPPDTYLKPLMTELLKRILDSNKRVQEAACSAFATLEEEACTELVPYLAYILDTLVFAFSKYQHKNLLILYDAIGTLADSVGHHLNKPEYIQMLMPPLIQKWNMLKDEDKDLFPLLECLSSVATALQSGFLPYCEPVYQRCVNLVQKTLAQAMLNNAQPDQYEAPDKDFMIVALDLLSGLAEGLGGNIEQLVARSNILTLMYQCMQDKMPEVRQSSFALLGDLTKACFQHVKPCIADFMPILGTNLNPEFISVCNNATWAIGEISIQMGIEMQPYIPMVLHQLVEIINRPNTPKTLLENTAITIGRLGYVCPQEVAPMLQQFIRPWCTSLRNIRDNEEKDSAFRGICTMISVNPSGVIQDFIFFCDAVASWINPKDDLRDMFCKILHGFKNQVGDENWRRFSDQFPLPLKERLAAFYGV

binding | Substance
no binding | 14-3-3 beta/alpha (from UniProt P31946 1-246)
no binding | 14-3-3 epsilon (endogenous) (from UniProt P62258 1-255)
no binding | 14-3-3 zeta (from UniProt P63104 1-245)

Further lines, the substance ahead of its results:

Substance | binding
RBBP4 (from UniProt Q09028 1-425) | binds
PHF12 (from UniProt Q96QT6 1-1004) | binds

molecular target: T2, BirA*-FLAG-GATAD1 wild-type (WT) (human) (UniProt Q8WUU5); test: as above
T2 sequence: T1 sequence with P102S

binding | Substance
no binding | 14-3-3 beta/alpha (from UniProt P31946 1-246)
no binding | 14-3-3 epsilon (endogenous) (from UniProt P62258 1-255)
no binding | 14-3-3 zeta (from UniProt P63104 1-245)

The next lines start with the substance.

Substance | binding
RBBP4 (from UniProt Q09028 1-425) | binds
PHF12 (from UniProt Q96QT6 1-1004) | binds

molecular target: T3, BirA*-FLAG-GATAD1 S102A (human) (UniProt Q8WUU5); test: as above
T3 sequence: T1 sequence with P102A

binding | Substance
no binding | 14-3-3 beta/alpha (from UniProt P31946 1-246)
no binding | 14-3-3 epsilon (endogenous) (from UniProt P62258 1-255)
no binding | 14-3-3 zeta (from UniProt P63104 1-245)

More lines, now with the values behind:

Substance | binding
RBBP4 (from UniProt Q09028 1-425) | binds
PHF12 (from UniProt Q96QT6 1-1004) | binds

molecular target: T4, BirA*-FLAG-GATAD1 S102D (human) (UniProt Q8WUU5); test: as above
T4 sequence: T1 sequence with P102D

binding | Substance
no binding | 14-3-3 beta/alpha (from UniProt P31946 1-246)
no binding | 14-3-3 epsilon (endogenous) (from UniProt P62258 1-255)
no binding | 14-3-3 zeta (from UniProt P63104 1-245)

The next lines start with the substance.

Substance | binding
RBBP4 (from UniProt Q09028 1-425) | binds
PHF12 (from UniProt Q96QT6 1-1004) | binds

molecular target: T5, GATAD1 pS102 peptide, position +5 to alanine (alanine scanning) (human) (UniProt Q8WUU5); test: affinity purification with mass spectrometry; PRISMA alanine scanning: 15 GATAD1-derived peptides on a cellulose membrane in triplicates, pull-down from HEK-293T lysate, label-free quantification, one-way ANOVA; only the target purified
T5 sequence (peptide, phosphoserine at 102): LRNTKYKSAPAAAKK

binding | Substance
binds | 14-3-3 beta/alpha (from UniProt P31946 1-246)
binds | 14-3-3 epsilon (endogenous) (from UniProt P62258 1-255)
binds | 14-3-3 zeta (from UniProt P63104 1-245)

molecular target: T6, GATAD1 pS102 peptide, position +3 alanine to glycine (alanine scanning) (human) (UniProt Q8WUU5); test: as above
T6 sequence (peptide, phosphoserine at 102): LRNTKYKSAPGAEKK

binding | Substance
binds | 14-3-3 beta/alpha (from UniProt P31946 1-246)
binds | 14-3-3 epsilon (endogenous) (from UniProt P62258 1-255)
binds | 14-3-3 zeta (from UniProt P63104 1-245)

molecular target: T7, GATAD1 pS102 peptide, position -2 to alanine (alanine scanning) (human) (UniProt Q8WUU5); test: as above
T7 sequence (peptide, phosphoserine at 102): LRNTKAKSAPAAEKK

binding | Substance
binds | 14-3-3 beta/alpha (from UniProt P31946 1-246)
binds | 14-3-3 epsilon (endogenous) (from UniProt P62258 1-255)
binds | 14-3-3 zeta (from UniProt P63104 1-245)

molecular target: T8, GATAD1 S102P peptide on cellulose membrane (PRISMA) (human) (UniProt Q8WUU5); test: as above
T8 sequence (peptide): LRNTKYKPAPAAEKK

binding | Substance
binds | IPO5 (from UniProt O00410 1-1097)
no binding | 14-3-3 beta/alpha (from UniProt P31946 1-246)
binds | RANBP2 (from UniProt P49792 1-3224)
binds | TNPO1 (from UniProt Q92973 1-898)
no binding | 14-3-3 epsilon (endogenous) (from UniProt P62258 1-255)
no binding | 14-3-3 zeta (from UniProt P63104 1-245)

molecular target: T9, GATAD1 pS102 peptide, position -1 to alanine (alanine scanning) (human) (UniProt Q8WUU5); test: as above
T9 sequence (peptide, phosphoserine at 102): LRNTKYASAPAAEKK

binding | Substance
binds | 14-3-3 beta/alpha (from UniProt P31946 1-246)
binds | 14-3-3 epsilon (endogenous) (from UniProt P62258 1-255)
binds | 14-3-3 zeta (from UniProt P63104 1-245)

molecular target: T10, GATAD1 pS102 peptide, position -4 to alanine (alanine scanning) (human) (UniProt Q8WUU5); test: as above
T10 sequence (peptide, phosphoserine at 102): LRNAKYKSAPAAEKK

binding | Substance
binds | 14-3-3 beta/alpha (from UniProt P31946 1-246)
binds | 14-3-3 epsilon (endogenous) (from UniProt P62258 1-255)
binds | 14-3-3 zeta (from UniProt P63104 1-245)

molecular target: T11, GATAD1 pS102 peptide, position +4 alanine to glycine (alanine scanning) (human) (UniProt Q8WUU5); test: as above
T11 sequence (peptide, phosphoserine at 102): LRNTKYKSAPAGEKK

binding | Substance
binds | 14-3-3 beta/alpha (from UniProt P31946 1-246)
binds | 14-3-3 epsilon (endogenous) (from UniProt P62258 1-255)
binds | 14-3-3 zeta (from UniProt P63104 1-245)

molecular target: T12, GATAD1 pS102 peptide, position -5 to alanine (alanine scanning) (human) (UniProt Q8WUU5); test: as above
T12 sequence (peptide, phosphoserine at 102): LRATKYKSAPAAEKK

binding | Substance
binds | 14-3-3 beta/alpha (from UniProt P31946 1-246)
binds | 14-3-3 epsilon (endogenous) (from UniProt P62258 1-255)
binds | 14-3-3 zeta (from UniProt P63104 1-245)

molecular target: T13, GATAD1 aspartic acid mutant (S102D) peptide on cellulose membrane (alanine scanning) (human) (UniProt Q8WUU5); test: as above
T13 sequence (peptide): LRNTKYKDAPAAEKK

binding | Substance
binds | IPO5 (from UniProt O00410 1-1097)
no binding | 14-3-3 beta/alpha (from UniProt P31946 1-246)
binds | RANBP2 (from UniProt P49792 1-3224)
binds | TNPO1 (from UniProt Q92973 1-898)
no binding | 14-3-3 epsilon (endogenous) (from UniProt P62258 1-255)
no binding | 14-3-3 zeta (from UniProt P63104 1-245)

molecular target: T14, GATAD1 pS102 peptide, position -3 to alanine (alanine scanning) (human) (UniProt Q8WUU5); test: as above
T14 sequence (peptide, phosphoserine at 102): LRNTAYKSAPAAEKK

binding | Substance
binds | 14-3-3 beta/alpha (from UniProt P31946 1-246)
binds | 14-3-3 epsilon (endogenous) (from UniProt P62258 1-255)
binds | 14-3-3 zeta (from UniProt P63104 1-245)

molecular target: T15, GATAD1 pS102 peptide, proline in position +2 to alanine (alanine scanning) (human) (UniProt Q8WUU5); test: as above
T15 sequence (peptide, phosphoserine at 102): LRNTKYKSAAAAEKK

binding | Substance
binds | 14-3-3 beta/alpha (from UniProt P31946 1-246)
binds | 14-3-3 epsilon (endogenous) (from UniProt P62258 1-255)
binds | 14-3-3 zeta (from UniProt P63104 1-245)

molecular target: T2, BirA*-FLAG-GATAD1 wild-type (WT) (human); test: proximity labelling; BioID: BirA*-FLAG-GATAD1 variants in Flp-In-293 cells, tetracycline 24 h, 50 μM biotin overnight, streptavidin-sepharose enrichment, SILAC with label swap

binding | Substance
binds | PHF12 (from UniProt Q96QT6 1-1004)

Reference: paper PMC11009412, “Pathogenic mutations of human phosphorylation sites affect protein–protein interactions” (Nature Communications, 2024)
